# Results: the supplement of paper PMC8728848
# Some of the results follow.
# B1: TIM-1 (Mus musculus), AAL35774 (protein)
# chain: MNQIQVFISGLILLLPGAVDSYVEVKGVVGHPVTLPCTYSTYRGITTTCWGRGQCPSSACQNTLIWTNGHRVTYQKSSRYNLKGHISEGDVSLTIENSVESDSGLYCCRVEIPGWFNDQKVTFSLQVKPEIPTRPPTRPTTTRPTATGRPTTISTRSTHVPTSIRVSTSTPPTSTHTWTHKPEPTTFCPHETTAEVTGIPSHTPTDWNGTVTSSGDTWSNHTEAIPPGKPQKNPTKGFYVGICIAALLLLLLVSTVAITRYILMKRKSASLSVVAFRVSKIEALQNAAVVHSRAEDNIYIVEDRP
# Experiments:
# Assay in all cases: glycan array binding signal (z-score within array); higher = stronger binding
# Details in all cases: glycan notation: IUPAC condensed, linker removed
# [1] = target: Neu5Ac(a2-6)Gal(b1-4)GlcNAc(b1-3)Gal(b1-4)[Fuc(a1-3)]GlcNAc(b1-3)Gal(b1-4)[Fuc(a1-3)]GlcNAc
# Procedure, shortened: (§1)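 Glycan array data were curated from 3228 arrays in the Consortium for Functional Glycomics database and kept only where the protein sequence was available. Glycan names were converted to IUPAC-condensed notation, and columns mapping to the same glycan were averaged. The binding signal is a within-array Z-score, averaged across arrays of the same protein sequence at different concentrations or buffers and across linkers. Negative Z-scores can be read as non-binding.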
# [2] = target: Neu5Ac(a2-6)Gal(b1-4)GlcNAc6S
# Procedure, shortened: as §1
# Neu5Ac(a2-6)GalNAc = target: Neu5Ac(a2-6)GalNAc
# Procedure, shortened: as §1
# [3] = target: Neu5Ac(a2-6)GalNAc(b1-4)GlcNAc
# Procedure, shortened: as §1
# Neu5Ac(a2-8)Neu5Ac = target: Neu5Ac(a2-8)Neu5Ac
# Procedure, shortened: as §1
# [4] = target: Neu5Ac(a2-8)Neu5Ac(a2-3)Gal(b1-4)Glc
# Procedure, shortened: as §1
# [5] = target: Neu5Ac(a2-8)Neu5Ac(a2-3)[GalNAc(b1-4)]Gal(b1-4)Glc
# Procedure, shortened: as §1
# [6] = target: Neu5Ac(a2-8)Neu5Ac(a2-8)Neu5Ac
# Procedure, shortened: as §1
# [7] = target: Neu5Ac(a2-8)Neu5Ac(a2-8)Neu5Ac(a2-3)Gal(b1-4)Glc
# Procedure, shortened: as §1
# [8] = target: Neu5Ac(a2-8)Neu5Ac(a2-8)Neu5Ac(a2-3)[GalNAc(b1-4)]Gal(b1-4)Glc
# Procedure, shortened: as §1
# [9] = target: Neu5Ac(a2-8)Neu5Ac(a2-8)Neu5Ac(a2-8)Neu5Ac(a2-3)[GalNAc(b1-4)]Gal(b1-4)Glc
# Procedure, shortened: as §1
# Neu5Ac(b1-6)GalNAc = target: Neu5Ac(b1-6)GalNAc
# Procedure, shortened: as §1
# [10] = target: Neu5Ac(b2-6)Gal(b1-4)GlcNAc
# Procedure, shortened: as §1
# [11] = target: Neu5Ac9Ac(a2-6)Gal(b1-4)GlcNAc
# Procedure, shortened: as §1
# [12] = target: Neu5Gc(a2-3)Gal(b1-3)GlcNAc
# Procedure, shortened: as §1
# [13] = target: Neu5Gc(a2-3)Gal(b1-3)[Fuc(a1-4)]GlcNAc
# Procedure, shortened: as §1
# Neu5Gc(a2-3)Gal(b1-4)Glc = target: Neu5Gc(a2-3)Gal(b1-4)Glc
# Procedure, shortened: as §1
# [14] = target: Neu5Gc(a2-3)Gal(b1-4)GlcNAc
# Procedure, shortened: as §1
# [15] = target: Neu5Gc(a2-3)Gal(b1-4)[Fuc(a1-3)]GlcNAc
# Procedure, shortened: as §1
# [16] = target: Neu5Gc(a2-3)Gal(b1-4)[Fuc(a1-4)]GlcNAc
# Procedure, shortened: as §1
# [17] = target: Neu5Gc(a2-6)Gal(b1-4)GlcNAc
# Procedure, shortened: as §1
# Neu5Gc(a2-6)GalNAc = target: Neu5Gc(a2-6)GalNAc
# Procedure, shortened: as §1
binder,measurement,setting,value
B1,glycan array binding signal (z-score),[1],-0.125
same,glycan array binding signal (z-score),[2],0.265
same,glycan array binding signal (z-score),Neu5Ac(a2-6)GalNAc,-0.529
same,glycan array binding signal (z-score),[3],-0.348
same,glycan array binding signal (z-score),Neu5Ac(a2-8)Neu5Ac,-0.283
same,glycan array binding signal (z-score),[4],-0.429
same,glycan array binding signal (z-score),[5],-0.352
same,glycan array binding signal (z-score),[6],-0.368
same,glycan array binding signal (z-score),[7],-0.132
same,glycan array binding signal (z-score),[8],-0.52
same,glycan array binding signal (z-score),[9],-1.03
same,glycan array binding signal (z-score),Neu5Ac(b1-6)GalNAc,0.038
same,glycan array binding signal (z-score),[10],-0.039
same,glycan array binding signal (z-score),[11],-0.372
same,glycan array binding signal (z-score),[12],-0.313
same,glycan array binding signal (z-score),[13],-0.226
same,glycan array binding signal (z-score),Neu5Gc(a2-3)Gal(b1-4)Glc,0.064
same,glycan array binding signal (z-score),[14],0.186
same,glycan array binding signal (z-score),[15],0.138
same,glycan array binding signal (z-score),[16],0.134
same,glycan array binding signal (z-score),[17],-0.372
same,glycan array binding signal (z-score),Neu5Gc(a2-6)GalNAc,-0.143

# Shown as tab-separated lines: entries from further up.
binder	measurement	setting	value
B1	glycan array binding signal (z-score)	[6]	-0.368
same	glycan array binding signal (z-score)	[13]	-0.226
